According to publication PMC7395150:
These are yes or no findings as the source states them, for the method shown. Binding seen in cells or lysates may run through a third protein. Here binding means that the protein was enriched with, or labelled near, the bait; the list need not be complete. One block for each molecule: values may come before it.

Protein sequences, listed by entry. Tags and fused reporters are not part of them.
UniProt P27169: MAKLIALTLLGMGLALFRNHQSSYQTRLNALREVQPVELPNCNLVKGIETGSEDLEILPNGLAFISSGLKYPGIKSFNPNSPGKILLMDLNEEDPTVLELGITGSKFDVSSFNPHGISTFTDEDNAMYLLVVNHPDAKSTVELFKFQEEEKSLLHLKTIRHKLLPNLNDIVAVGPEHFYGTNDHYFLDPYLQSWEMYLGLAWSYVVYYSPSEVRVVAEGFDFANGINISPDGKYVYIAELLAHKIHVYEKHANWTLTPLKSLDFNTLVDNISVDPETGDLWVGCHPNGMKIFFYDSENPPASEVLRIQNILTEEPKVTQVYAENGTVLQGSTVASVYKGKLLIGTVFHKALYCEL

Columns and labels:
[1] = biological target: T1, Synthetic SPP24 peptide …; assay: affinity purification with mass spectrometry; 'primary' binders: as the peptide capture, but captured serum proteins washed (PBS pH 7.4, 0.1% Tween20, then PBS pH 7.4), incubated overnight at room temperature with trypsin 10 µg on the beads, washed repeatedly, released with 0.15% TFA, LC-MS/MS; only the target purified
T1 sequence (peptide): VSAQQVQGVHAR

[2] = biological target: Paraoxonase 1 (PON1) (human (endogenous in serum)) (UniProt P27169); assay: affinity purification with mass spectrometry; reverse binding: polyclonal PON1 antibody as the bait, capture from serum, eluted proteins digested with trypsin, ESI-LC-MS/MS
[3] = biological target: T1, Synthetic SPP24 peptide …; assay: affinity purification with mass spectrometry; synthetic SPP24 peptide bound to tosylactivated magnetic beads; pooled whole serum of UC, CD and controls (5 patients each); eluted proteins digested with trypsin, ESI-LC-MS/MS; only the target purified

- binding [1]: binds
Molecule: Paraoxonase 1 (PON1) (from UniProt P27169 1-355) (enzyme)

- binding [2]: binds
B1: Secreted phosphoprotein 24 (SPP24) (protein, UniProt Q13103 30-211)
chain: FPVYDYDPSSLRDALSASVVKVNSQSLSPYLFRAFRSSLKRVEVLDENNLVMNLEFSIRETTCRKDSGEDPATCAFQRDYYVSTAVCRSTVKVSAQQVQGVHARCSWSSSTSESYSSEEMIFGDMLGSHKWRNNYLFGLISDESISEQFYDRSLGIMRRVLPPGNRRYPNHRHRARINTDFE

- binding [3]: binds
B2: α-2-macroglobulin (protein, UniProt P01023 24-1474)
chain: SVSGKPQYMVLVPSLLHTETTEKGCVLLSYLNETVTVSASLESVRGNRSLFTDLEAENDVLHCVAFAVPKSSSNEEVMFLTVQVKGPTQEFKKRTTVMVKNEDSLVFVQTDKSIYKPGQTVKFRVVSMDENFHPLNELIPLVYIQDPKGNRIAQWQSFQLEGGLKQFSFPLSSEPFQGSYKVVVQKKSGGRTEHPFTVEEFVLPKFEVQVTVPKIITILEEEMNVSVCGLYTYGKPVPGHVTVSICRKYSDASDCHGEDSQAFCEKFSGQLNSHGCFYQQVKTKVFQLKRKEYEMKLHTEAQIQEEGTVVELTGRQSSEITRTITKLSFVKVDSHFRQGIPFFGQVRLVDGKGVPIPNKVIFIRGNEANYYSNATTDEHGLVQFSINTTNVMGTSLTVRVNYKDRSPCYGYQWVSEEHEEAHHTAYLVFSPSKSFVHLEPMSHELPCGHTQTVQAHYILNGGTLLGLKKLSFYYLIMAKGGIVRTGTHGLLVKQEDMKGHFSISIPVKSDIAPVARLLIYAVLPTGDVIGDSAKYDVENCLANKVDLSFSPSQSLPASHAHLRVTAAPQSVCALRAVDQSVLLMKPDAELSASSVYNLLPEKDLTGFPGPLNDQDNEDCINRHNVYINGITYTPVSSTNEKDMYSFLEDMGLKAFTNSKIRKPKMCPQLQQYEMHGPEGLRVGFYESDVMGRGHARLVHVEEPHTETVRKYFPETWIWDLVVVNSAGVAEVGVTVPDTITEWKAGAFCLSEDAGLGISSTASLRAFQPFFVELTMPYSVIRGEAFTLKATVLNYLPKCIRVSVQLEASPAFLAVPVEKEQAPHCICANGRQTVSWAVTPKSLGNVNFTVSAEALESQELCGTEVPSVPEHGRKDTVIKPLLVEPEGLEKETTFNSLLCPSGGEVSEELSLKLPPNVVEESARASVSVLGDILGSAMQNTQNLLQMPYGCGEQNMVLFAPNIYVLDYLNETQQLTPEIKSKAIGYLNTGYQRQLNYKHYDGSYSTFGERYGRNQGNTWLTAFVLKTFAQARAYIFIDEAHITQALIWLSQRQKDNGCFRSSGSLLNNAIKGGVEDEVTLSAYITIALLEIPLTVTHPVVRNALFCLESAWKTAQEGDHGSHVYTKALLAYAFALAGNQDKRKEVLKSLNEEAVKKDNSVHWERPQKPKAPVGHFYEPQAPSAEVEMTSYVLLAYLTAQPAPTSEDLTSATNIVKWITKQQNAQGGFSSTQDTVVALHALSKYGAATFTRTGKAAQVTIQSSGTFSSKFQVDNNNRLLLQQVSLPELPGEYSMKVTGEGCVYLQTSLKYNILPEKEEFPFALGVQTLPQTCDEPKAHTSFQISLSVSYTGSRSASNMAIVDVKMVSGFIPLKPTVKMLERSNHVSRTEVSSNHVLIYLDKVSNQTLSLFFTVLQDVPVRDLKPAIVKVYDYYETDEFAIAEYNAPCSKDLGNA
